The test deals with T1, GST-TMIGD1 (GST fusion of the cytoplasmic domain of human TMIGD1) (human) (UniProt Q6UXZ0).
T1 sequence: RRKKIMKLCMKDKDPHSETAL
In words: affinity purification with mass spectrometry; GST-TMIGD1 bound via glutathione to agarose resin, incubated with whole cell lysate of 786-0 cells; captured proteins resolved on SDS-PAGE, bands excised, LC-MS/MS; only the target purified.

Chains of the proteins cited; added tags and fusions are not shown.
UniProt P26038: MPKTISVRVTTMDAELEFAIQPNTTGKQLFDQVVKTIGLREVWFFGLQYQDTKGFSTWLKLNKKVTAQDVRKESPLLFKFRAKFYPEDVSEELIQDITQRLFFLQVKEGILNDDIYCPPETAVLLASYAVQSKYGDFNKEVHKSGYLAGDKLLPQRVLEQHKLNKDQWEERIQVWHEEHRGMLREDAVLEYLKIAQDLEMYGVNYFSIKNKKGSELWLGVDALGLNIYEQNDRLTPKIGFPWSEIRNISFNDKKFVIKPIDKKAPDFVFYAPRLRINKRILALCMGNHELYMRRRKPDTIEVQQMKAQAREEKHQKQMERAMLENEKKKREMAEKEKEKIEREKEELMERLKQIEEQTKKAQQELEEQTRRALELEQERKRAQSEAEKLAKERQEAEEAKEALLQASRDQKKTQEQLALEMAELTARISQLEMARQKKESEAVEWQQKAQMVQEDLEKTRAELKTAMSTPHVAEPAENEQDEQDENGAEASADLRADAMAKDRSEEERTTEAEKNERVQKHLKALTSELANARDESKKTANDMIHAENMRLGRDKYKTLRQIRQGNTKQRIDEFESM

One substance from PMC8427838 can be followed below.

These are yes or no findings as the source states them, for the method shown. Binding seen in cells or lysates may run through a third protein. A yes stands for co-enrichment or nearness to the bait. Other partners may have been found. Tags and fused reporters may be left off the sequences shown.

For the substance “moesin (endogenous, 786-0 renal carcinoma cells) (from UniProt P26038 1-577)”, the binding entry was “binds”.
